No constants are given. Whether binding was seen depends on the method and setting. For some of these results: Binding calls can cover weak binding; strength is not graded here. For some of these results: Binding seen in cells or lysates may run through a third protein. For some of these results: Sequences can lack the tags named with a protein.

The chains behind the UniProt entries cited, without tags or fusion partners. Where a name states a change or a piece, a line headed by the entry shows the natural chain unless it says otherwise.
UniProt Q5ZEF1: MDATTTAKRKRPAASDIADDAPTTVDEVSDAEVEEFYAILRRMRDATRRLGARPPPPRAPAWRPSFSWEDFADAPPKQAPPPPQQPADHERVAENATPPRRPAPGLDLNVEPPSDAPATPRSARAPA
UniProt Q6L589: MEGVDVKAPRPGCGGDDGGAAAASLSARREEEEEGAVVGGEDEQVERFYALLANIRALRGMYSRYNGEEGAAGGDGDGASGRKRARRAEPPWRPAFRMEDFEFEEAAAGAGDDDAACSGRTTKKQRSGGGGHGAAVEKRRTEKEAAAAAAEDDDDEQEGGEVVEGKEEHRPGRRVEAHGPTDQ
UniProt Q5QM06: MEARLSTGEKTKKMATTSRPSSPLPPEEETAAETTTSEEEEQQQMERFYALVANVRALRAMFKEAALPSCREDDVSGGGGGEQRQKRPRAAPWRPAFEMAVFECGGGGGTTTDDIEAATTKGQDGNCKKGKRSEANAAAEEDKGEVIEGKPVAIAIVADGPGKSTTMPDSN
UniProt B7F924: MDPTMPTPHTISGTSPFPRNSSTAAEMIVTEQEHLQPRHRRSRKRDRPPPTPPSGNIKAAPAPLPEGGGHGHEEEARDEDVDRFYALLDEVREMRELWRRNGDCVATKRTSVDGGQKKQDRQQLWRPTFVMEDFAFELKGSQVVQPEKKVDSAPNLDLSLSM

For experiment [1], the target named is Negative Regulator of Resistance (NRR) (rice (Nipponbare)) (UniProt Q5ZEF1). Put plainly: two-hybrid; LexA fusion (written as target) and B42AD fusion (written as binder) in yeast EGY48; beta-galactosidase on X-gal medium, blue colour graded +++ to –; at least three colonies.
In the next experiment the target is RH1 (rice (Nipponbare)) (UniProt Q6L589). The experiment is described as above.
The target in a further experiment is RH2 (rice (Nipponbare)) (UniProt Q5QM06). The experiment is described as above.
A further experiment addresses RH3 (rice (Nipponbare)) (UniProt B7F924). The description is as above.
In experiment [2] the target is TGAL1 (rice (Nipponbare)). The description is as above.
In experiment [3] the target is TGAL11 (rice (Nipponbare)). The experiment is described as above.
Experiment [4] addresses TGAL2 (rice (Nipponbare)). The description is as above.
In experiment [5] the target is TGAL4 (rice (Nipponbare)). The experiment is described as above.
Experiment [6] concerns the target TGAL5 (rice (Nipponbare)). The description is as above.
The target of experiment [7] is TGAL6 (rice (Nipponbare)). The experiment is described as above.
Experiment [8] concerns the target TGAL7 (rice (Nipponbare)). Described as above.
The target in experiment [9] is TGAL8 (rice (Nipponbare)). Described as above.
The target of experiment [10] is TGAL9 (rice (Nipponbare)). The experiment is described as above.
A further experiment concerns the target rLG2 (rice (Nipponbare)). The description is as above.
The target in experiment [11] is rTGA2.1 (rice (Nipponbare)). The experiment is described as above.
Experiment [12] concerns the target rTGA2.2 (rice (Nipponbare)). The description is as above.
The target of experiment [13] is rTGA2.3 (rice (Nipponbare)). The experiment is described as above.
Experiment [14] deals with NRR (split YFP fusion) (rice (Nipponbare)). The experiment in a line: split reporter; split YFP in rice protoplasts, 5 ug of each plasmid, 24-36 hr after transfection, fluorescence graded +++ to –; the YFPN fusion is written as binder, the YFPC fusion as target.
The target in experiment [15] is RH1 (split YFP fusion) (rice (Nipponbare)). Described as above.
Experiment [16] has as its target RH2 (split YFP fusion) (rice (Nipponbare)). The description is as above.
Experiment [17] deals with RH3 (split YFP fusion) (rice (Nipponbare)). The description is as above.
Experiment [18] deals with TGAL1 (split YFP fusion) (rice (Nipponbare)). Described as above.
Experiment [19] deals with TGAL2 (split YFP fusion) (rice (Nipponbare)). Described as above.
The target in experiment [20] is TGAL4 (split YFP fusion) (rice (Nipponbare)). Described as above.
Experiment [21] concerns the target TGAL5 (split YFP fusion) (rice (Nipponbare)). The description is as above.
The target in experiment [22] is rLG2 (split YFP fusion) (rice (Nipponbare)). The experiment is described as above.
Experiment [23] deals with rTGA2.1 (split YFP fusion) (rice (Nipponbare)). Described as above.
Experiment [24] deals with rTGA2.2 (split YFP fusion) (rice (Nipponbare)). The description is as above.
Experiment [25] deals with rTGA2.3 (split YFP fusion) (rice (Nipponbare)). The experiment is described as above.

B1: NH2 (protein, UniProt Q0JJ01 1-635)
chain: MPARSAVVVIAMEPSSSITIASSSSYLSNGSSPCSVSLAPPGAGAVAAQAAPVAAGEGGGGGGGGGGGGSSSVEVVSLNRLSANLERLLLDSDLDCSDADVDVADGGPPVPVHRCILAARSTFFYNLFAARGRGGDGAAGGGGGGGGGGGERTGGRPRYKMEELVPGGRVGRDAFLSLLGYLYTGKLRPAPDDVVSCADPMCPHDSCPPAIRFNVEQMYAAWAFKITELISLFQRRLLNFVDKTLVEDVLPILQVAFHSELTPVLEKCIRRIARSNLDNVSLDKELPPEVAVQIKEIRQKSQPNEGDTVISDPVHEKRVRRIHRALDSDDVELVKLLLNESEITLDDANALHYAAAYCDSKVVSELLDLRLANLNLKNSRGYTALHLAAMRREPAIIMCLLNKGAAVSQLTADGQSAMSICRRLTRMKDYNTKMEQGQESNKDRLCIDILDREMIRKPMAVEDSVTSPLLADDLHMKLLYLENRVAFARLFFPAEAKVAMQIAQADTTPEFGIVPAASTSGKLKEVDLNETPVTQNKRLRSRVDALMKTVELGRRYFPNCSQVLDKFLEDDLPDSPDALDLQNGTSDEQNVKRMRFCELKEDVRKAFSKDRADNSMFSILSSSSSSSPPPKVAKK
In the case of B1, the binding result (in experiment [1]; with RH1 (rice (Nipponbare)); with RH2 (rice (Nipponbare)); with RH3 (rice (Nipponbare)); in experiment [2]; in [3]) was “binds” throughout. Besides, the binding result in experiment [4], in [5], in experiment [6], in experiment [7], in [8] and in [9] was “binds” throughout. For the same molecule, the binding result in experiment [10] is “no binding”; with rLG2 (rice (Nipponbare)), “binds”; in [11], “binds”; in [12], “binds”; in experiment [13] it was “binds”.

B2: NH3 (protein, UniProt Q75HA6 1-589)
chain: METSTISFSSSSPPSPPPPQPAPGDIDAVSLGRLSRNLENLLDPAFLNCADAEIVLASGGGDPGGGAVVGVHRCILAARSRFFYDHFSSAPAPAPATAGDKPQLDLDGLVPGGRHIGRDALVAVLSYLYTGRLRSAPPEAAACLDDGCSHDACRPAIDFVVESTYAASGFQISELVSLFQRRLSDFVNKALAEDILPILVVASTCHLPELLNQCIQRVANSNLDNRYLEKRLPDDLYAKLKEFRVPDEPHSGILDPEHEKRVRNIHKALDSDDVDLVGMLLKESPVTLDDAFAIHYAAAYCEPKVLAELLKLESANVNLKNSSGYTPLHMACMRREPDIIVSLIEKGASVLERTQDGRDALTICKRLTREKDRNEKSEKCKERSKAYLCIGVLQQEIKRRPQILEDQMSAEESIATPLLVDNFHMRLLNLENRVAFARIFFPSEAKLVMRIAQADSTQEFAGLTSANFSKLKEVDLNETPTMQNRRLRERLDALTKTVELGRRYFPHCSEVLDKFLNEESTDLILLESGTAEDQQTKRMRFSELREDVRKAFTKDKAAGAAISSSTSASSSPRYETKLRPGNKKGKLSR
With B2, the binding result (in experiment [1]; with RH1 (rice (Nipponbare)); with RH2 (rice (Nipponbare)); with RH3 (rice (Nipponbare)); in [2]; in [3]) was “binds” throughout. Moreover, the binding result in experiment [4], in [5], in [6], in experiment [7], in experiment [8] and in experiment [9] was “binds” each time. In addition, the binding result is “no binding” in experiment [10]; “binds” in the experiment with rLG2 (rice (Nipponbare)); “binds” in experiment [11]; “binds” in experiment [12]; “binds” in experiment [13].

B3: NH3 (split YFP fusion) (protein, UniProt Q75HA6 1-589)
chain: B2 chain
Regarding B3, the binding entry in experiment [14], in [15], in [16], in [17], in experiment [18] and in experiment [19] was “binds” in each case. In addition, the binding result in experiment [20], in experiment [21], in experiment [22], in experiment [23], in experiment [24] and in experiment [25] was “binds” each time.

The values above are taken from article PMC4094623.
